# According to PubChem BioAssay (Tox21):
# Protein sequences, listed by entry. Tags and fused reporters are not part of them.
# UniProt P14416, whole entry, looked up: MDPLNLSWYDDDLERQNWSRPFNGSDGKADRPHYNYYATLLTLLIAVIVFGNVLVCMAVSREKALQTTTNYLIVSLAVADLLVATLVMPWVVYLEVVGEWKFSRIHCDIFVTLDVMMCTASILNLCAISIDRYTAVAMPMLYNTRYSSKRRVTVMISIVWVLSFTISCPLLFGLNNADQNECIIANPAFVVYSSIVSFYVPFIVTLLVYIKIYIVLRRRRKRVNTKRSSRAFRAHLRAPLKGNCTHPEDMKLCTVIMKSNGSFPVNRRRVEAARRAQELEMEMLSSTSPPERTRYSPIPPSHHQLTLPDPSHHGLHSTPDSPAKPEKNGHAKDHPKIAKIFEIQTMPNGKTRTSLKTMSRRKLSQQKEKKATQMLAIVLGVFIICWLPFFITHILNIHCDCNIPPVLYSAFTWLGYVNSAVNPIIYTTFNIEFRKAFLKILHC
# UniProt P28223, whole entry, looked up: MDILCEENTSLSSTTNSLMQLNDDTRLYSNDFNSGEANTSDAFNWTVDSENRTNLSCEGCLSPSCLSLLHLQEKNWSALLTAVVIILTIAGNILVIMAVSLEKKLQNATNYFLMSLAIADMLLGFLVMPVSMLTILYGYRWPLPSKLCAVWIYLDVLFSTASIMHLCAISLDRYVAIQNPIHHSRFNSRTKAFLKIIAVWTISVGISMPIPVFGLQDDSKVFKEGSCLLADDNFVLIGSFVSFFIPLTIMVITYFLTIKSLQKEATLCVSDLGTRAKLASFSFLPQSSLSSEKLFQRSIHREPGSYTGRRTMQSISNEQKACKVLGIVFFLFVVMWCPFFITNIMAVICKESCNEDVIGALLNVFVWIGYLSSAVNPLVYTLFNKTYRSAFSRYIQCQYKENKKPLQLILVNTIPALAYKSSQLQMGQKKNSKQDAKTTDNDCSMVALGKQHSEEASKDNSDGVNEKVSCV
# Where “and” joins values, the source holds several entries; their conditions need not be identical. Identical values can stand only once. Inconclusive means that the source gave no clear call. Such entries were picked first, then a sample of the others. Potencies beside an inconclusive call are fits to weak or partial responses and may not hold up. Some structures have more than one record in an assay (separate samples or runs), and their calls can disagree. Calls of active or inactive are those of the source. Unless noted, calls follow the shape of the full dose curve.
# Columns and labels:
# [1] = Nuclear factor erythroid 2-related factor 2/antioxidant responsive element (Nrf2/ARE) small molecule agonists: luciferase reporter gene qHTS assay in human keratinocytes (AID 1919969); settings: KeratinoSens HaCaT ARE-luciferase, luminescence, 24 h; activity, positive = activation: at 92.4 µM (top of the series); also: nearly all actives have a fitted effect of over 35% in size; as to activity, positive = activation: % is scaled to controls: 0 for no effect and ±100 for the full control effect
# [2] = p53 small molecule agonists, cell-based qHTS assay with human liver microsomes: qHTS cell viability counter screen (AID 1963579); also: nearly all actives have a fitted effect of over 45% in size; as to activity change, negative = cytotoxicity: % is scaled to controls: 0 for no effect and ±100 for the full control effect
# Outline: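 Cells carrying the p53 response-element beta-lactamase reporter are treated for 16 h at 37 C with test compounds in the presence of human liver microsomes and NADPH (both 0.5 mg/mL final); ATP-based CellTiter-Glo luminescence then reports viability.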
# [3] = target: Beta-2 adrenergic receptor (Homo sapiens) (UniProt P07550); experiment: Adrenergic beta2 receptor (ADRB2) small molecule agonists, cell-based qHTS assay (AID 1963593); settings: CHO-ADRB2 cells, cAMP HTRF, 30 min;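 as to activation: CHO cells stably overexpressing human ADRB2; % is scaled to controls: 0 for no effect and ±100 for the full control effect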
# Outline: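 CHO cells stably over-expressing ADRB2 were plated overnight at 37C, then dosed with compounds plus a stimulation mix containing 100uM IBMX and 25uM Ro-20-1724 for 0.5hr at room temperature. cAMP was measured by HTRF competition, 1hr.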
# [4] = p53 small molecule agonists, cell-based qHTS assay: qHTS cell viability counter screen (AID 1963581); also: nearly all actives have a fitted effect of over 45% in size
# Outline: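 p53RE-bla HCT-116 cells were exposed to compounds for 16 h at 37 C; after the beta-lactamase FRET read in the same wells, CellTiter-Glo was added and luminescence (intracellular ATP) read after 30 min at room temperature.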
# [5] = target: D(2) dopamine receptor (Homo sapiens) (UniProt P14416); experiment: Dopamine D2 receptor (DRD2) small molecule agonists, cell-based qHTS assay (AID 1963594); settings: HEK293-DRD2 cAMP HTRF, agonist mode, 30 min; activation: at 92.4 µM (top of the series) unless noted; also: nearly all actives have a fitted effect of over 35% in size
# Outline: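 cAMP accumulation in DRD2-HEK293 cells measured by HTRF after 1 h detection; compounds added 10 min before NKH477 (200nM […]) forskolin-analogue stimulation, 30 min at room temperature, with Ro20-1724 present at 0.1 mM final.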
# [6] = p53 small molecule agonists, cell-based qHTS assay (AID 1963582; active = well fitted activation curve with a large enough effect in the signal ratio in the repeat runs, not every such curve was filed as active; inconclusive = weak or mixed curves; the % refers to the signal ratio; as to activation: % is scaled to controls: 0 for no effect and ±100 for the full control effect); settings: HCT-116 p53RE-bla reporter, beta-lactamase FRET ratio, 16 h; activation: at 66 µM (top of the series) unless noted
# Outline: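 p53RE-bla beta-lactamase reporter cells rested 5 h at 37 C/5% CO2, then received compounds in DMSO by pin transfer and were incubated 16 h at 37 C. LiveBLAzer B/G FRET substrate was loaded for 2 h at room temperature before fluorescence reading.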
# [7] = cAMP Responsive Elements (CRE) small molecule agonists, cell-based qHTS assay (AID 1963590); settings: CRE-bla HEK293T, beta-lactamase FRET ratio, 3 h; activation: at 92.4 µM (top of the series) unless noted
# Outline: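 CRE-bla HEK 293T cells in DMEM with 10% dialyzed FBS, NEAA, pyruvate and 25 mM HEPES were plated 18 h at 37 C/5% CO2, then exposed to compounds in DMSO for 3 h before LiveBLAzer B/G FRET substrate addition.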
# [8] = cAMP Responsive Elements (CRE) small molecule antagonists, cell-based qHTS assay (AID 1963591; active = well fitted inhibition curve with a large enough effect in the signal ratio in the repeat runs, not every such curve was filed as active; inconclusive = weak or mixed curves, or effect the other way; the % refers to the signal ratio); settings: CRE-bla HEK293T, beta-lactamase FRET ratio; activity change, negative = inhibition: at 92.4 µM (top of the series) unless noted
# Outline: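 CRE-bla HEK293T cells were plated 18 h at 37 °C/5% CO2, pinned with compound in DMSO, then stimulated with NKH477 at 0.25 uM final for 3 h. LiveBLAzer B/G FRET substrate was added and plates incubated 2 h at room temperature.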
# [9] = target: 5-hydroxytryptamine receptor 2A (Homo sapiens) (UniProt P28223); experiment: 5-hydroxytryptamine receptor 2A (HTR2A) small molecule antagonists, cell-based qHTS assay (AID 1963586); also: nearly all actives have a fitted effect of over 45% in size
# Outline: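 Antagonist-mode intracellular calcium assay: DOI (4 nM) added after 5 min compound pre-incubation at room temperature to dye-loaded HTR2A-CHO cells. Fluorescence followed for 3 min, sampled every second.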
# [10] = p53 small molecule agonists, cell-based qHTS assay with rat liver microsomes: qHTS cell viability counter screen (AID 1963580); also: nearly all actives have a fitted effect of over 45% in size
# Outline: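 Intracellular ATP, by CellTiter-Glo luminescence, defines viability. HCT-116 p53RE-bla cells, 4,000 per well, were compound-treated in the presence of rat liver microsomes and NADPH for 16 h at 37 C.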
# [11] = activation: at 92.4 µM (top of the series) unless noted
# Potency is read from the fitted curve at half-maximal effect.
smiles,measurement,setting,value
CC(C)C1CCC(O)CC1 (configuration not stated),Potency,[1],inactive
same,Potency,[2],inactive
same,Potency,[3]; [11],inactive
CC(C)C(=O)Nc1ccc([N+](=O)[O-])c(C(F)(F)F)c1,Potency,[1],inactive
same,Potency,[2],inactive
same,Potency,[4],"inconclusive: 52.8 µM [cytotoxic, single point]"
same,Potency,[5],inconclusive: 29.8 µM
O=c1cc[nH]c(=S)[nH]1,Potency,[1],"inconclusive: 54.8 µM [activator, partial curve, poor fit]"
same,Potency,[2],active: 0.793 µM
same,Potency,[6],"inconclusive: 46.1 µM [activator, single point] and inactive"
same,Potency,[3]; [11],"inconclusive: 388 nM [inhibitor, single point]"
same,activation,[3]; at 42.5 µM (top of the series),inconclusive: -0.778%
same,activation,[3]; at 92.4 µM (top of the series),inconclusive: -16.2%
CC/C=C1/OC(=O)c2ccccc21,Potency,[1],"inconclusive: 67 µM [activator, single point]"
same,Potency,[2],"inconclusive: 20 µM [cytotoxic, partial curve]"
same,Potency,[7],inactive
same,Potency,[3]; [11],"inconclusive: 6 nM [inhibitor, single point]"
O=C(O)c1ccccc1C(=O)OCc1ccccc1,Potency,[1],"inconclusive: 27.3 µM [activator, single point]"
same,Potency,[2],inactive
same,Potency,[7],"inconclusive: 61.1 µM [rising, partial curve, poor fit]"
same,Potency,[8],inactive
same,Potency,[3]; [11],"inconclusive: 6110 nM [inhibitor, single point]"
CCCCCCc1ccc(-c2ccc(C#N)cc2)cc1,Potency,[1],active: 13.4 µM
same,Potency,[2],inactive
same,Potency,[7],inactive
same,Potency,[3]; [11],inactive
CCC(CC)Nc1ccc(C)c(C)c1,Potency,[1],inconclusive: 68.6 µM [activator]
same,Potency,[2],"inconclusive: 45.8 µM [cytotoxic, single point]"
same,Potency,[9],inactive
same,activation,[3]; [11],inconclusive: 40.1%
CCCCOC(=O)CC#N,Potency,[1],"inconclusive: 71.9 µM [activator, single point]"
same,Potency,[2],active: 17 µM
same,Potency,[8],"inconclusive: 25.5 µM [activator, single point]"
same,Potency,[3]; [11],inactive
Cc1c(N(C)C)c(=O)n(-c2ccccc2)n1C,Potency,[1],"inconclusive: 68.6 µM [activator, single point]"
same,Potency,[2],"inconclusive: 52.2 µM [cytotoxic, partial curve, poor fit] and inconclusive: 22.3 µM [cytotoxic, single point]"
same,Potency,[9],"inconclusive: 0.17 µM [inhibitor, single point]"
same,Potency,[7],inactive
same,Potency,[8],inactive
same,activation,[3]; [11],inconclusive: 7.26% [at 42.5 µM]
CC(=O)Nc1ccc(S(=O)(=O)Cl)cc1,Potency,[1],inactive
same,Potency,[2],inactive
same,Potency,[3]; [11],inactive
Cc1ccnc2ccccc12,Potency,[1],active: 68.4 µM
same,Potency,[2],"inconclusive: 45.6 µM [cytotoxic, single point]"
same,Potency,[7],inactive
same,Potency,[8],inactive
same,Potency,[3]; [11],inactive
CC(C)[C@@H]1CC[C@@H](C)CC1=O,Potency,[1],"inconclusive: 68.6 µM [activator, single point]"
same,Potency,[2],"inconclusive: 28.9 µM [cytotoxic, partial curve]"
same,Potency,[8],inactive
same,Potency,[3]; [11],"inconclusive: 30.6 µM [inhibitor, single point] and inconclusive: 3.35 µM [inhibitor, single point]"
CNC(=O)c1cc(Oc2ccc(NC(=O)Nc3ccc(Cl)c(C(F)(F)F)c3)cc2)ccn1,Potency,[1],inactive
same,Potency,[2],"inconclusive: 17.8 µM [rising, partial curve]"
same,Potency,[6],inconclusive: 8.9 µM [activator]
same,Potency,[7],"inconclusive: 29.8 µM [rising, partial curve]"
same,Potency,[8],"inconclusive: 33.5 µM [inhibitor, single point]"
same,Potency,[3]; [11],"inconclusive: 1.9 nM [inhibitor, single point]"
O=c1c(-c2ccc(O)cc2)coc2cc(O)cc(O)c12,Potency,[1],"inconclusive: 6.11 µM [activator, partial curve]"
same,Potency,[10],"active: 16 µM and inconclusive: 51.3 µM [cytotoxic, single point] and inconclusive: 25.1 µM [cytotoxic, single point]"
same,Potency,[6],"inconclusive: 40.1 µM [activator, single point] and inconclusive: 45.8 µM [activator, partial curve, poor fit]"
same,Potency,[7],"inconclusive: 23.9 µM [fluorescent, partial curve] and inconclusive: 30.6 µM [fluorescent, partial curve]"
same,activation,[5],inconclusive: -3.06% [at 42.5 µM]
BrC/C=C/CBr,"activity, positive = activation",[1],inactive: -2.5% [at 19 µM]
same,"activity change, negative = cytotoxicity",[10],inactive: -2.57% [at 13.5 µM]
same,activation,[6],inconclusive: -3.67% [at 13.5 µM]
same,"activity change, negative = inhibition",[8],inactive: -2.76% [at 18.9 µM]
same,activation,[3]; [11],inactive: -14.8% [at 19 µM]
CC1=CC(=C(c2ccc(N)cc2)c2ccc(N)cc2)C=CC1=N,Potency,[1],"inconclusive: 0.0069 µM [activator, single point]"
same,Potency,[10],"inconclusive: 13 nM [rising, partial curve]"
same,"activity, negative = inhibition",[9],inactive: 14.5% [at 5.62 µM]
same,activation,[3]; [11],inactive: -33.8% [at 8.39 µM]
